We go through three molecules from patent US20100028924A1, “Method Of Diagnosing Pon1-Hdl Associated Lipid Disorders” (Rappaport Family Institute Research in the Medical Sciences, priority 2006, published 2010).

Residue numbers refer to the chain shown, from its start.

First the molecules themselves.
B1: rePON1-192R: recombinant PON1 with arginine at position 192, generated to mimic the human R isozyme (protein)
chain: MAKLTALTLLGLGLALFDGQKSSFQTRFNVHREVTPVELPNCNLVKGVDNGSEDLEILPNGLAFISSGLKYPGIMSFDPDKSGKILLMDLNEEDPVVLELGITGNTLDISSFNPHGISTFTDEDNTVYLLVVNHPDSSSTVEVFKFQEEEKSLLHLKTIRHKLLPSVNDIVAVGPEHFYATNDHYFADPYLRSWEMHLGLAWSFVTYYSPNDVRVVAEGFDFANGINISPDGKYVYIAELLAHKIHVYEKHANWTLTPLKSLDFDTLVDNISVDPVTGDLWVGCHPNGMRIFYYDPKNPPGSEVLRIQDILSEEPKVTVVYAENGTVLQGSTVAAVYKGKLLIGTVFHKALYCEL
modifications: rePON1-192R isozyme
notes: recombinant PON1 with arginine at position 192, generated to mimic the human R isozyme
B2: rePON1-192Q: recombinant PON1 with glutamine at position 192, generated to mimic the human Q isozyme (protein)
chain: B1 chain with R192Q
modifications: rePON1-192Q isozyme
notes: recombinant PON1 with glutamine at position 192, generated to mimic the human Q isozyme
B3: wt rePON1-192K: recombinant wild-type PON1 variant G3C9 with C-terminal His8-tag, lysine at position 192, close homologue of rabbit PON1 (protein)
chain: B1 chain with R192K
modifications: C-terminal His8 tag; WT rePON1-192K
notes: recombinant wild-type PON1 variant G3C9 with C-terminal His8-tag, lysine at position 192, close homologue of rabbit PON1

A short description of the data set: Inactivation kinetics of rePON1 192 isozymes in activity buffer. In kind it is biochemical. The note with it: EDTA and β-mercaptoethanol, 37° C. As for the experimental part: FIG. 1 is a graph showing the inactivation kinetics of the wild-type rePON1-192K (SEQ ID NO:2), -192R (SEQ ID NO:4) and -192Q (SEQ ID NO:6) isozymes, bound to rHDL-apoA-I, or in buffer. Delipidated enzymes were incubated with a 50-fold excess of rHDL-apoA-I, or in activity buffer, and subjected to inactivation in the presence of EDTA (5 mM) and β-mercaptoethanol (10 mM) at 37° C. Residual activity at various time points was determined by initial rates of phenyl acetate hydrolysis (2 mM) and plotted as percent of the activity at time zero. Data were fitted to a single exponential for wild-type rePON1-192K on rHDL-apoA-I, and to double-exponentials for the remaining samples. The inactivation rate constants and amplitudes were derived from this fit;
Inactivation rates of rePON1s were measured as described [Gaidukov, L. and D. S. Tawfik, Biochemistry, 2005. 44(35): p. 11843-54]. Briefly, rePON1 samples were delipidated using Bio-Beads SM-2 (BioRad) and incubated in buffer, or with 50-fold molar excess of rHDL-apoA-I. EDTA (10 mM) and β-mercaptoethanol (20 mM) were added, and samples were incubated at 37° C. Residual activity at different time points was determined with 2 mM phenyl acetate, and inactivation rates were fitted to either mono- or double-exponentials [Gaidukov, L. and D. S. Tawfik, Biochemistry, 2005. 44(35): p. 11843-54].
The resultant inactivation profiles of wt rePON1 (SEQ ID NO: 2), rePON1-192Q (SEQ ID NO: 6) and rePON1-192R (SEQ ID NO: 4), were fitted to exponential curves as illustrated in FIG. 1.
Regarding B1, the “A2 (%) (amplitude of second, slow inactivation phase)” value was determined as 31%.
Consider B2, for which the “A2 (%) (amplitude of second, slow inactivation phase)” value came to 24%.
Consider B3, for which the “A2 (%) (amplitude of second, slow inactivation phase)” value is 31%.
